This test has as its target T1, Myc-tagged WT mouse MAVS (mitochondrial antiviral-signaling protein) (mouse) (UniProt Q8VCF0).
T1 sequence: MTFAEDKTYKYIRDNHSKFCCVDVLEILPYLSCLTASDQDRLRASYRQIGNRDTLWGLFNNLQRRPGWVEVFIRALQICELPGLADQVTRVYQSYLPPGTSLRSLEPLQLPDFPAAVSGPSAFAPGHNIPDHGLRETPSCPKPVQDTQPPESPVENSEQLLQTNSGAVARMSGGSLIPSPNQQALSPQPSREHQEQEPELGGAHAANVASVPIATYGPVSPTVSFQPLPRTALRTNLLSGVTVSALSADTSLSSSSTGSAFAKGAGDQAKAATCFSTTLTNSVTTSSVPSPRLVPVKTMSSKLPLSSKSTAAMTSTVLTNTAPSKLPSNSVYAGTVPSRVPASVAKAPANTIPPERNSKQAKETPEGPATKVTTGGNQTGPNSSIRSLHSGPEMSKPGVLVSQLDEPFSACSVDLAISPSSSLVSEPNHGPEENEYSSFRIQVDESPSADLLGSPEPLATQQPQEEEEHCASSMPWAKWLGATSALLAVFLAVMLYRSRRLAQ
Briefly: co-IP; association of MAVS WT with TRAF5 or TRAF6 examined 'in our system'; no figure, no details given.

Chains of the proteins cited; added tags and fusions are not shown.
UniProt O00463: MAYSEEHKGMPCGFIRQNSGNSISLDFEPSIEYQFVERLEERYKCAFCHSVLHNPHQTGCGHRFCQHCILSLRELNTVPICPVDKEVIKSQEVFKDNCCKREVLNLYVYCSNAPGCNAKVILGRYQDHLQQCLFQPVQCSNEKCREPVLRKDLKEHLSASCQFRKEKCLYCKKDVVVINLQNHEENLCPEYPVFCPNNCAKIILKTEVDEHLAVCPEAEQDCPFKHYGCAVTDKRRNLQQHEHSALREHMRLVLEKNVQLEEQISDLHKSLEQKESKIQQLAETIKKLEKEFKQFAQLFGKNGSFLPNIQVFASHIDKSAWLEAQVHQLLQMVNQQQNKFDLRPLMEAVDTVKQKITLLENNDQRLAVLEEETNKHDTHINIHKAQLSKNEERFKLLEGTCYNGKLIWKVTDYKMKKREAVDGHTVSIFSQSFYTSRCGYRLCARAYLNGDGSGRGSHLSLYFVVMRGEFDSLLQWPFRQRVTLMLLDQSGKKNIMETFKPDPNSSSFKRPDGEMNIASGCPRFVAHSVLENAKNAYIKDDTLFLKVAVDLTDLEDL

These are yes or no findings as the source states them, for the method shown. In cells and extracts the contact can be indirect. Where a sequence is shown, tags or fusion partners need not be part of it.

The values that follow come from paper PMC12362409.

TRAF5 (from UniProt O00463 1-557): the binding result is “no binding”.
